Assay results reported in article PMC6377607.

The chains behind the UniProt entries cited, without tags or fusion partners. Where a name states a change or a piece, a line headed by the entry shows the natural chain unless it says otherwise.
UniProt Q9XF23: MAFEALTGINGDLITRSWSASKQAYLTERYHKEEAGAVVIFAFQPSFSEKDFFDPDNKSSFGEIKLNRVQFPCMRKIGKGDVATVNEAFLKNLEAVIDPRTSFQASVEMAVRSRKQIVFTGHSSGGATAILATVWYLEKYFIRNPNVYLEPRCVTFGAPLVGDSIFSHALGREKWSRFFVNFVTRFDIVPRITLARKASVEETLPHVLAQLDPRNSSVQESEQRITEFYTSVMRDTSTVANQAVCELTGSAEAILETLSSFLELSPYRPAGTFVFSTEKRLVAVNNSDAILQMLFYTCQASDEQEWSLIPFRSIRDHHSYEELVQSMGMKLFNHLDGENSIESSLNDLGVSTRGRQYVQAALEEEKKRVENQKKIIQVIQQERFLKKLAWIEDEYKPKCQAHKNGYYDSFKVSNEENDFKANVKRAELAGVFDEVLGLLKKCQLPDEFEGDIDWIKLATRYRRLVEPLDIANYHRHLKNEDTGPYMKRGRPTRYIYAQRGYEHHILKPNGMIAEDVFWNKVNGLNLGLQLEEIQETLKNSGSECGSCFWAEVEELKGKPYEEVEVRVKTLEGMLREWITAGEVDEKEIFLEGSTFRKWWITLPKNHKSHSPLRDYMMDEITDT

Target: T1, Phytoalexin deficient4 (PAD4), yeast two-hybrid fusion (Arabidopsis) (UniProt Q9S745)
T1 sequence: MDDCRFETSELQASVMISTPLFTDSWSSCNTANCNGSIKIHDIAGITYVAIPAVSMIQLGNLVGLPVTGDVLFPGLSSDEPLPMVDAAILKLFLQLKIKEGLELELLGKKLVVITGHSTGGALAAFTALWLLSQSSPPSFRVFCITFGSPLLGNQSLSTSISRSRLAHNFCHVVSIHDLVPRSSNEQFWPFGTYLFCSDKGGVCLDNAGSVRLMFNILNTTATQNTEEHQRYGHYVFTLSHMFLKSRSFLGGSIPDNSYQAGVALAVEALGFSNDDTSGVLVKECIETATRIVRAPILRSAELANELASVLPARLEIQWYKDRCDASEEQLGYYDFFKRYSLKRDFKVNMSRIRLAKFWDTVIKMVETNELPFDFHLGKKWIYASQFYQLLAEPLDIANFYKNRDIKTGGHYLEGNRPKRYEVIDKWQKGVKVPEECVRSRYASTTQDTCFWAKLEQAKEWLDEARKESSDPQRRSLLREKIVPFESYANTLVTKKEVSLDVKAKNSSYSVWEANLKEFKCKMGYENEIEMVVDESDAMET
Assay: two-hybrid; Matchmaker system (Clontech), yeast strain AH109, fusions in pGADT7 and pGBKT7; reporter activation on plates lacking leucine, tryptophan, histidine and adenine, growth recorded after 2-5 days at 30 °C

For “EDS1^LLIF lipase-like domain mutant, yeast two-hybrid fusion (from UniProt Q9XF23)”, the binding was “binds weakly”.

These are yes or no findings as the source states them, for the method shown. Binding can be weak; no strength is given. Tags and fused reporters may be left off the sequences shown.
